For some assays here: Negatives hold for the conditions tested. For some assays here: Construct, isoform or probe ends are uncertain for at least one entry. For some assays here: At least one verdict rests on a figure or table, not on a statement of the authors.

Chains of the proteins cited; added tags and fusions are not shown. A line that says so, or that is headed by a name, gives the form on record, which may keep a tag or linker. Residues count along the entry.
UniProt P27694, 181-441: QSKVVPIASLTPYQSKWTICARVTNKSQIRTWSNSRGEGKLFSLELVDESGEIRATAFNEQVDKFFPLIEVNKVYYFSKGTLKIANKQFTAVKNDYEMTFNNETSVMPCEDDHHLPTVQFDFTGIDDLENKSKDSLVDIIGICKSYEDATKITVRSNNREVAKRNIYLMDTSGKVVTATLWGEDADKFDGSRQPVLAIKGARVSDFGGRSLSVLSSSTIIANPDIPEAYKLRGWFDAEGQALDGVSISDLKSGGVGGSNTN
UniProt P27694, 432-595 V435T/W442Q/V465T/V469T/F523S/F567S/I571T: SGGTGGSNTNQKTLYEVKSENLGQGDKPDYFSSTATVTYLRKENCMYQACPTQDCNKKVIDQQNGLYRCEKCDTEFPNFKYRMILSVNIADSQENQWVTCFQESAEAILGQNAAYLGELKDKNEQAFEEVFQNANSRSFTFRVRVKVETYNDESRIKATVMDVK
RPA-CDE (human), one chain, as listed by the source, chain 1 of 3: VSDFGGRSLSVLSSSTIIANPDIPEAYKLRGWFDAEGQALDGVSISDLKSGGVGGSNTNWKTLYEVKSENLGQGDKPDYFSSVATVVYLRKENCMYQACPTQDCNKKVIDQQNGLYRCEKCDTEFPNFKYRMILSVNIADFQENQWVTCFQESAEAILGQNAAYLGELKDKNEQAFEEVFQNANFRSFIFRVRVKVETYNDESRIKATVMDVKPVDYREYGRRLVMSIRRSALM
RPA-CDE-core (human), one chain, as listed by the source, chain 2 of 3: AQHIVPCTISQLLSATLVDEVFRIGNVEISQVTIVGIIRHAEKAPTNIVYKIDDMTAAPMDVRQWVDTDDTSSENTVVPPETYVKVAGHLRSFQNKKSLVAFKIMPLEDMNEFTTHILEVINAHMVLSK
RPA-CDE-core (human), one chain, as listed by the source, chain 1 of 3: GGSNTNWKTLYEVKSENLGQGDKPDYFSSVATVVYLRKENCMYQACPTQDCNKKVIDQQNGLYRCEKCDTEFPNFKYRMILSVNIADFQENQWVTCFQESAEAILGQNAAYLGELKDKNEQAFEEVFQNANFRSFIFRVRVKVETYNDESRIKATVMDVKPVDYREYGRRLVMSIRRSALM
RPA-CDE-core (human), one chain, as listed by the source, chain 3 of 3: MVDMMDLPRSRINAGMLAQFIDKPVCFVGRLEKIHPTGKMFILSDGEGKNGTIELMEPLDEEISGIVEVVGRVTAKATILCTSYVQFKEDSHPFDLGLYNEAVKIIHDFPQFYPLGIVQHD
RPA (full-length heterotrimer RPA1/RPA2/RPA3) (human), one chain, as listed by the source, chain 1 of 3: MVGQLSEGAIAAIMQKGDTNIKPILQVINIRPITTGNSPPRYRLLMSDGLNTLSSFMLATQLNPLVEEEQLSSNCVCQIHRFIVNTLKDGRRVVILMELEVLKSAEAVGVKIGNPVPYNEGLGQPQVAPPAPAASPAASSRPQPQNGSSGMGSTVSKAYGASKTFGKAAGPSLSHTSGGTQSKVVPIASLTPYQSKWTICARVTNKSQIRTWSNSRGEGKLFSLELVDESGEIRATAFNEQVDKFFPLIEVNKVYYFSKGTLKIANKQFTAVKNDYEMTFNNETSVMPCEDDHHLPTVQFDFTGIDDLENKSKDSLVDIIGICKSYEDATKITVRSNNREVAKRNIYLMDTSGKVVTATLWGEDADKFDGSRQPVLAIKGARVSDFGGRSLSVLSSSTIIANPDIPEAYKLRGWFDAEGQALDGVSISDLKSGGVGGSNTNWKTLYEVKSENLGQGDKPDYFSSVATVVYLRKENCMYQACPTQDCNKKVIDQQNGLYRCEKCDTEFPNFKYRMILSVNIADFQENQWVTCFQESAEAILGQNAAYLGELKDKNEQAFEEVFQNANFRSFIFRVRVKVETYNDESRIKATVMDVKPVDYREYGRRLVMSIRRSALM
RPA-CDE (human), one chain, as listed by the source, chain 2 of 3: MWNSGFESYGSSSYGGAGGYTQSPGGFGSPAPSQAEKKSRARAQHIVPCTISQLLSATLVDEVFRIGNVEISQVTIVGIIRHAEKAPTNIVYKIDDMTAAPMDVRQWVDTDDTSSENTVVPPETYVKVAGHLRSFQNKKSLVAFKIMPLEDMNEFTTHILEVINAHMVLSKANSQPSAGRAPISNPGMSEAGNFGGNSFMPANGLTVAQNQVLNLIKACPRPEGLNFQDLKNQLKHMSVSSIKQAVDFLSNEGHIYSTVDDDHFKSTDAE

For one data set, the target named is RPA-AB (human) (UniProt P27694). The experiment in a line: FP. Particulars: 18-carbon spacer (sp18) at 5' end, FP: 0.060 uM FAM-oligo, 10-1500 mM NaCl, room temperature, recombinant protein, residues 181-441, protein details: N-terminal His6, thrombin-cleaved, label: 5' 6-FAM.
The target of data set [1] is RPA-C V435T,W442Q,V465T,V469T,F523S,F567S,I571T (human) (UniProt P27694). In words: FP. Conditions: 100 mM NaCl, 18-carbon spacer (sp18) at 5' end, FP: 0.060 uM FAM-oligo, 10-1500 mM NaCl, room temperature, recombinant protein, residues 432-595, protein details: N-terminal His, thrombin-cleaved, label: 5' 6-FAM.
The next data set concerns RPA-CDE-core (human). In words: FP. Conditions: 18-carbon spacer (sp18) at 5' end, FP: 0.060 uM FAM-oligo, 10-1500 mM NaCl, room temperature, recombinant protein, protein details: N-terminal His, thrombin-cleaved, label: 5' 6-FAM.
The next data set has as its system RPA-DE (human). In words: FP. Particulars: 100 mM NaCl; 18-carbon spacer (sp18) at 5' end; FP: 0.060 uM FAM-oligo, 10-1500 mM NaCl, room temperature; recombinant protein; protein details: N-terminal His, thrombin-cleaved; label: 5' 6-FAM; folded or branched DNA.
The next data set has as its system RPA-CDE (human). In words: CD titration. Conditions: remains random coil when bound; CD: Buffer A 25 mM Tris pH 7.5, 2 mM MgCl2, 6% glycerol, 1 mM DTT, 100 (or 10) mM NaCl, room temperature; recombinant protein; single-stranded DNA.
The subject of data set [2] is RPA (full-length heterotrimer RPA1/RPA2/RPA3) (human). In words: FP. Conditions: 18-carbon spacer (sp18) at 5' end, FP: 0.060 uM FAM-oligo, 10-1500 mM NaCl, room temperature, recombinant protein, label: 5' 6-FAM, single-stranded DNA.
The mark [3] stands for this setting: 1250 mM NaCl, folded or branched DNA.
The mark [4] stands for this setting: 500 mM NaCl, single-stranded DNA.
Where [5] appears, read: 1250 mM NaCl, single-stranded DNA.

Take TAGGGGAAGGGTTGGAGTGGGTT [Gq23 (FP)]: the binding result is reported as “no binding” in the data set with RPA-AB (human) (setting [3]); “no binding” with RPA-AB (human) (1500 mM NaCl, folded or branched DNA); “no binding” in data set [1] (folded or branched DNA); “no binding” in the data set on RPA-CDE-core (human) (setting [3]); “no binding” in the data set with RPA-DE (human).
As for ATCCCCTTCCCAACCTCACCCAA [Anti (Comp)], in data set [1] (single-stranded DNA), the binding result is listed as “no binding”.
With GTCTTCCTTAATTGTCTTCCTTA [TC23], the binding result with RPA-CDE (human) was “binds”.
For the sequence AAAAAAAAAAAAAAAAAAAAAAA [polyA], the binding result is recorded as “no binding” in data set [2] (1250 mM NaCl); “no binding” in data set [2] (1500 mM NaCl); “no binding” with RPA-AB (human) (setting [4]); “no binding” with RPA-AB (human) (setting [5]); “no binding” with RPA-AB (human) (1500 mM NaCl, single-stranded DNA); “no binding” with RPA-CDE-core (human) (setting [4]). In addition, the binding result with RPA-CDE-core (human) (setting [5]) was “no binding”.
